Experimental data: doi:10.1101/032243
These are yes or no findings as the source states them, for the method shown. In cells and extracts the contact can be indirect. Some binding calls cover weakened binding; strength is not graded here. For some of these results: Where a sequence is shown, tags or fusion partners need not be part of it.

Assays:
Assay in all cases: co-IP
[1] = target: T1, DISC1 (as used in the co-IP of Fig. S3D) (UniProt Q811T9)
T1 sequence: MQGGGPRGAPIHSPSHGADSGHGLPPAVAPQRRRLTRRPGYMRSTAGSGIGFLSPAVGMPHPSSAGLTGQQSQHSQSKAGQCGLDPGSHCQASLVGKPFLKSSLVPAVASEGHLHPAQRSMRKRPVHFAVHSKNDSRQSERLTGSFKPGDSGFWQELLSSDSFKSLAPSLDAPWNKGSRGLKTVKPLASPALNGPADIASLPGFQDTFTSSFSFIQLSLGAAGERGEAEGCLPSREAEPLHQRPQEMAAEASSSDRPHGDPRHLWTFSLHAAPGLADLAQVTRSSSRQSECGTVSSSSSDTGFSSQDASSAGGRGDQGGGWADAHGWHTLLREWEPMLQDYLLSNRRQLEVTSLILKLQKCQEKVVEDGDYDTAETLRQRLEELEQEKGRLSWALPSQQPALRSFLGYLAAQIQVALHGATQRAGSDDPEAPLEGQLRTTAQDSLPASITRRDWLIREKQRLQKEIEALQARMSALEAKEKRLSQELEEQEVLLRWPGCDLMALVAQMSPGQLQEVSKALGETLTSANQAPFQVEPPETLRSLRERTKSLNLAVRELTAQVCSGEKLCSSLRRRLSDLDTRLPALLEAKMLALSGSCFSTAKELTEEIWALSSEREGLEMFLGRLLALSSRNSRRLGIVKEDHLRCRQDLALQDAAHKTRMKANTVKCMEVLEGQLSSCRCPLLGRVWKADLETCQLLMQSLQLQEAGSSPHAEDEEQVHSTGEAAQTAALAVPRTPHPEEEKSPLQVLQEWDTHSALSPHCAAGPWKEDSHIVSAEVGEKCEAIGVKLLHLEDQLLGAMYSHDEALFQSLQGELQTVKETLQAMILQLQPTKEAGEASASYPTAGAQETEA

[2] = target: T2, full-length Flag-tagged DISC1 (mouse) (UniProt Q811T9)
T2 sequence: T1 sequence

[3] = target: Flag-tagged DISC1 CT region (residues 634-852) (mouse) (UniProt Q811T9)
[4] = target: T3, full-length Flag-tagged RASSF7 (UniProt Q9DD19)
T3 sequence: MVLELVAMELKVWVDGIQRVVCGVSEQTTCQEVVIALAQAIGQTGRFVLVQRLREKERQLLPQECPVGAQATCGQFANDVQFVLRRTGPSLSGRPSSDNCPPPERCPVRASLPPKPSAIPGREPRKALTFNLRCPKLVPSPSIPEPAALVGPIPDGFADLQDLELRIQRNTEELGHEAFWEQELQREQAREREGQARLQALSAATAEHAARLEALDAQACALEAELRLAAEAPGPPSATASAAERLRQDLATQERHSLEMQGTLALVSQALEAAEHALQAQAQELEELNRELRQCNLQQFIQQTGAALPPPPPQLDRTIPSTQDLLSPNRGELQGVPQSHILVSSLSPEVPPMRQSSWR

## c-RAF (from UniProt Q99N57 1-648)
[1]
  binding: no binding

B1: full-length HA-tagged RASSF7 (protein, UniProt Q9DD19 1-359)
chain: T3 sequence
[2]
  binding: binds
[3]
  binding: binds

B2: full-length HA-tagged mDISC1 (protein, UniProt Q811T9 1-852)
chain: T1 sequence
[4]
  binding: binds
